The list shows a part of the results. Small differences around the control level are noise.

Sequences of proteins named here, by UniProt entry; tags and fusion partners are left off. A change or cut given only in a name is not applied to a line headed by its entry.
UniProt Q0VAV2: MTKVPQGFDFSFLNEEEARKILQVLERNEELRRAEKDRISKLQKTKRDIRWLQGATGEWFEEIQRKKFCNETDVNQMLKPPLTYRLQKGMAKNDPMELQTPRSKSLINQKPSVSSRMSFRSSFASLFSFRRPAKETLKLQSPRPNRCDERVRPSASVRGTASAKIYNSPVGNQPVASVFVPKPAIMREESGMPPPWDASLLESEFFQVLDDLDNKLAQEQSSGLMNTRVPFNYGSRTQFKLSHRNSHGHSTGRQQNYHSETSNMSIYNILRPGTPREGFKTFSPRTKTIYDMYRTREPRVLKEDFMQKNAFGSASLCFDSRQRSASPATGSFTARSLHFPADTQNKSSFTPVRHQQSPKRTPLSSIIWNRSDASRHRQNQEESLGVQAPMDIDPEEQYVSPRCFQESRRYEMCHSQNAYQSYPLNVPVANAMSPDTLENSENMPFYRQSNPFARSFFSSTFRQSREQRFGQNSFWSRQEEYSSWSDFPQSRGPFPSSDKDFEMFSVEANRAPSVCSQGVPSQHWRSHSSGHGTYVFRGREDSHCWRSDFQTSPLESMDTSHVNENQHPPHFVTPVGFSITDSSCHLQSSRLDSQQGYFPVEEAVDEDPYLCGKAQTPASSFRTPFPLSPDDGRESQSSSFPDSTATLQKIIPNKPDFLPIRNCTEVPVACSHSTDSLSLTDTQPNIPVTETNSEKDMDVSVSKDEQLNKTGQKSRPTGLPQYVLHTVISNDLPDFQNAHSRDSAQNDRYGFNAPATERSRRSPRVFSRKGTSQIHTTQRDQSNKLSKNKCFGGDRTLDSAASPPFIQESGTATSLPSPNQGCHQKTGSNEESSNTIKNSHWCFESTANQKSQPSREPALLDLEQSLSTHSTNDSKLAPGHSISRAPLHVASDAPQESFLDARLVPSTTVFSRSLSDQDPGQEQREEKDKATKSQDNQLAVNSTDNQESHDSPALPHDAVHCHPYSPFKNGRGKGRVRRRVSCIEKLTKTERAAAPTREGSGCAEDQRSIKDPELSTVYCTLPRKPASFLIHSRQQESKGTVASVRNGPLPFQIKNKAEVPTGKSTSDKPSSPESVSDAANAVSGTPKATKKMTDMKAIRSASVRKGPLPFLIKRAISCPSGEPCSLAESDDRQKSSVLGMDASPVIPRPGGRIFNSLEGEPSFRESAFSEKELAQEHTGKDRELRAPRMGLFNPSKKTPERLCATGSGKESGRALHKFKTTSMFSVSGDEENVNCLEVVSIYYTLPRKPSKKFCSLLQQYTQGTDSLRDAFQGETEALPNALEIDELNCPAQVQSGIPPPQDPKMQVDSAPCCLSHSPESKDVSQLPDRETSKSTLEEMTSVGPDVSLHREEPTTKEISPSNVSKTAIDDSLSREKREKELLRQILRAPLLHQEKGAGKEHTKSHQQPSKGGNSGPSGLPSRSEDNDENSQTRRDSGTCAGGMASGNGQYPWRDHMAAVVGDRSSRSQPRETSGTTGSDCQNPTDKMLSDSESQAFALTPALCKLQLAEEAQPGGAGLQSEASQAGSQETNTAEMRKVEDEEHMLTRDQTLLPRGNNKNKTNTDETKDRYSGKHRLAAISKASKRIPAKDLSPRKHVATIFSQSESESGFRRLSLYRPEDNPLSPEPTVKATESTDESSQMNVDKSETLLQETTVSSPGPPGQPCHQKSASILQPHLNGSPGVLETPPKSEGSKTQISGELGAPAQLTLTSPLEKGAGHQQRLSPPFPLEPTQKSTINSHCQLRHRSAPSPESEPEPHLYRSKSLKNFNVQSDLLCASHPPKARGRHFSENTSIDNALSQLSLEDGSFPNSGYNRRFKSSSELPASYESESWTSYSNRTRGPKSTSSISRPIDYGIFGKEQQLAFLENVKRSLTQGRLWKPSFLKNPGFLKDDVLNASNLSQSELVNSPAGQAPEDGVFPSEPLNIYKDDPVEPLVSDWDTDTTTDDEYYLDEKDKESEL
UniProt Q3TUU5: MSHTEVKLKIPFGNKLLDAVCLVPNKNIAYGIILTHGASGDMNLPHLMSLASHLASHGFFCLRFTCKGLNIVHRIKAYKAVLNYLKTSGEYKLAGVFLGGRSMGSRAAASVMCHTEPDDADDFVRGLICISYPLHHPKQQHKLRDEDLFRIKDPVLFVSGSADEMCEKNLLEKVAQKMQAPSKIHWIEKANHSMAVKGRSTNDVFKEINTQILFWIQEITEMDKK
UniProt Q3TLH4: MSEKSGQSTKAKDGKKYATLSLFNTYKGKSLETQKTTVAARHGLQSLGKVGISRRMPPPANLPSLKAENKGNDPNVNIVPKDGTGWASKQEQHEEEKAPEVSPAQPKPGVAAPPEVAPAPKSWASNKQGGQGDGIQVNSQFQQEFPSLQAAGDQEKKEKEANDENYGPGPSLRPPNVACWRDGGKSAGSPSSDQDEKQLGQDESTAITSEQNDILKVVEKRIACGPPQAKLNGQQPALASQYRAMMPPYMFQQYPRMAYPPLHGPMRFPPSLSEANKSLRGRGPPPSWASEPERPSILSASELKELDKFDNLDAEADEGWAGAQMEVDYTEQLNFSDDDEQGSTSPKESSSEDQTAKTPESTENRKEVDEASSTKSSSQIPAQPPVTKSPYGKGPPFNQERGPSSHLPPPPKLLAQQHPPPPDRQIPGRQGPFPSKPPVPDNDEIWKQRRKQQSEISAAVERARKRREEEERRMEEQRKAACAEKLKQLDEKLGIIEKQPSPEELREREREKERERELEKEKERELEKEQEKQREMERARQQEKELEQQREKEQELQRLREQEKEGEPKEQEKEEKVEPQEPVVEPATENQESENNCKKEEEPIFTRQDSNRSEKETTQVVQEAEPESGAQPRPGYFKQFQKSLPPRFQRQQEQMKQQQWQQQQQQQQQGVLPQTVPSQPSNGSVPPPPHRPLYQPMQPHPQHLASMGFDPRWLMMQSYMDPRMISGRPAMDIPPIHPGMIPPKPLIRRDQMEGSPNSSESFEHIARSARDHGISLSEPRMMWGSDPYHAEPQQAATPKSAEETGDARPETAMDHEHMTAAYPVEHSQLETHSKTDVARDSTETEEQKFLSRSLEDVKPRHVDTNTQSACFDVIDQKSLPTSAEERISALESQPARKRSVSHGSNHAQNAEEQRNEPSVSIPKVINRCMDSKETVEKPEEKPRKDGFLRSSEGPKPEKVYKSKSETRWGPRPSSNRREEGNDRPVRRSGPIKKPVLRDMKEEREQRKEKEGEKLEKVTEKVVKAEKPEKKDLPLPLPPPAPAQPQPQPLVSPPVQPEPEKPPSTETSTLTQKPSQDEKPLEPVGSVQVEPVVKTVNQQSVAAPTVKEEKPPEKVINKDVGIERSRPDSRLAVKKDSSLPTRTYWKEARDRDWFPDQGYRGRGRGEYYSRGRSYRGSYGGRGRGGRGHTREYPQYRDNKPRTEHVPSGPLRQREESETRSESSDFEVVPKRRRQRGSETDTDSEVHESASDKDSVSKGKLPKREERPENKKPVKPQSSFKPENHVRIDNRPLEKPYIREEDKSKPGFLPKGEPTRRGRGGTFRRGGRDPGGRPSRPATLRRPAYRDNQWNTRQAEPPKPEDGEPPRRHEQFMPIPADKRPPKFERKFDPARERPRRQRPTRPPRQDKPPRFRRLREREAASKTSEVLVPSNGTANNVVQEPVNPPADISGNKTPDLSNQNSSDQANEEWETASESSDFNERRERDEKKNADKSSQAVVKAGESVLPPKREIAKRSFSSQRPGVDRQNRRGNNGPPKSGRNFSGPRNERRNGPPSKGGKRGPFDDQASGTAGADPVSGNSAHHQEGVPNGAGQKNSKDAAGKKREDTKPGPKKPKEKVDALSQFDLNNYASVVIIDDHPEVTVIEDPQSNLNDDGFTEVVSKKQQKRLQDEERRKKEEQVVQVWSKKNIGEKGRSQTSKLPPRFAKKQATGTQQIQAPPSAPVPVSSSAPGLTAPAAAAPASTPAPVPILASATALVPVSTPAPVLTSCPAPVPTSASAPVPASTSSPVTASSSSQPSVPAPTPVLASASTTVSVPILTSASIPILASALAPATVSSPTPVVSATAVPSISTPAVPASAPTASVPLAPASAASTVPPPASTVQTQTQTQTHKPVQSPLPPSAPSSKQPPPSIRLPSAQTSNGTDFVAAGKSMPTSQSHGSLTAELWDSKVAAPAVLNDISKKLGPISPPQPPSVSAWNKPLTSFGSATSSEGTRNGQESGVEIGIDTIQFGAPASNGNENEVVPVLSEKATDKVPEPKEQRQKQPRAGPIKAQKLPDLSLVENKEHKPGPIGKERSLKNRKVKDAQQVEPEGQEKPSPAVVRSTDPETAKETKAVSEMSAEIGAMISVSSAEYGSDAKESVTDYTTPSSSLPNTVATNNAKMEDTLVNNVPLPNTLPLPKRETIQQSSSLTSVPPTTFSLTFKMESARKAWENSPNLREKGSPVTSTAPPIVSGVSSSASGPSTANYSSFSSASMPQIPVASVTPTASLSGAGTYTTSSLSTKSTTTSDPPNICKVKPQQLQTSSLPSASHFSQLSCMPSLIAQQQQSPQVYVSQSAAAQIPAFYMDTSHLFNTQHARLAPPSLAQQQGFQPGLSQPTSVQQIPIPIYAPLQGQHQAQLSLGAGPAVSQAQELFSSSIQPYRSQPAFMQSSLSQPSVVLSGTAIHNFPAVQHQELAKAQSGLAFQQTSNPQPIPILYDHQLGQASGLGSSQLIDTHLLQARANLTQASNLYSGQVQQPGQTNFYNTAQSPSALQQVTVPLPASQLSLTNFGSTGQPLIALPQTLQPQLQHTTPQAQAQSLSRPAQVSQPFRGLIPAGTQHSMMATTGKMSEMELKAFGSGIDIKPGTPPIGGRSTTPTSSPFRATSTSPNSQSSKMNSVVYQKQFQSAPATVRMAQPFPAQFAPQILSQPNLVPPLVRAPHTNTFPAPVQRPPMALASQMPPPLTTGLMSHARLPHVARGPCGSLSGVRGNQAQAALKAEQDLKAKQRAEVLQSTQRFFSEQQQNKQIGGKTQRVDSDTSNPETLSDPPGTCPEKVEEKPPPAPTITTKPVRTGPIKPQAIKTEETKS
UniProt Q3TDX8: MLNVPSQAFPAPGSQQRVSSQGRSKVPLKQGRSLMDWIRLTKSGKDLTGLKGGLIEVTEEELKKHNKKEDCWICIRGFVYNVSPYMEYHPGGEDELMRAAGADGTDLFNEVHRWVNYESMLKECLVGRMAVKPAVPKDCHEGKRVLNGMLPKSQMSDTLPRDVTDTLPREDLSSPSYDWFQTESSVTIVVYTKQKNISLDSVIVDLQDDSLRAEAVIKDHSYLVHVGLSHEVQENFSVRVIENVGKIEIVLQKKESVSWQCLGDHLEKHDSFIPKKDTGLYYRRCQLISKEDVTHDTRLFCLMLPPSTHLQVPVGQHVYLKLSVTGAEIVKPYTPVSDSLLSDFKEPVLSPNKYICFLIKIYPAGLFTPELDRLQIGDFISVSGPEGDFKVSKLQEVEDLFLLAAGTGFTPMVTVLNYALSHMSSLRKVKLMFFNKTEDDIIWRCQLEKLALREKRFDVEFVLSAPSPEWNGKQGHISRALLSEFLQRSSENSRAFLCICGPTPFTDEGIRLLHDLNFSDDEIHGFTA

Compound in this assay: CN[C@@H]1C[C@H]2O[C@@](C)([C@@H]1OC)n1c3ccccc3c3c4c(c5c6ccccc6n2c5c31)C(=O)NC4 [staurosporine]
Nature of the assay: log2 fold change of tryptic peptide abundance, ligand vs vehicle (limited proteolysis) (log2 ratio); higher = more trypsin-susceptible (destabilized). The note with it: ligand concentration: 20 uM; sample: mouse liver crude lysate; replicate design: treated separately.
On to “UniProt Q0VAV2 (peptide sequence: APLLHQEK, peptide start residue: 1388)”, for which the log2 fold change is -0.733.
As for “UniProt Q3TUU5 (peptide sequence: LKIPFGNK, peptide start residue: 8)”, the figure is 0.523; as for “UniProt Q3TLH4 (peptide sequence: KEEQVVQVWSKK, peptide start residue: 1674)”, -0.737; as for “UniProt Q3TDX8 (peptide sequence: SQMSDTLPR, peptide start residue: 153)”, 0.108.
